# Measurements taken from the supplement of paper PMC12819154, “High-throughput peptide-centric local stability assay extends protein–ligand identification to membrane proteins, tissues and bacteria” (Nature Structural & Molecular Biology, 2025).
# Sequences of proteins named here, by UniProt entry; tags and fusion partners are left off. A change or cut given only in a name is not applied to a line headed by its entry.
# UniProt P35249, whole entry: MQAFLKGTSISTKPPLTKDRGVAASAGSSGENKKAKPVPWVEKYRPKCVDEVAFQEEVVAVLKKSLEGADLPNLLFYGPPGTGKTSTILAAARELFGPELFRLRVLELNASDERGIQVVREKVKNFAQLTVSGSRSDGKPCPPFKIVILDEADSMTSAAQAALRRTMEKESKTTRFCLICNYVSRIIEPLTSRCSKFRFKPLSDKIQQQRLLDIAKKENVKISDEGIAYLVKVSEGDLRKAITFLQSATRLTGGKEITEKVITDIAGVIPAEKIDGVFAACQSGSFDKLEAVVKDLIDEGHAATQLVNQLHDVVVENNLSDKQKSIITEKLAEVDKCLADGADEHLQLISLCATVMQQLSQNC
# UniProt P31930: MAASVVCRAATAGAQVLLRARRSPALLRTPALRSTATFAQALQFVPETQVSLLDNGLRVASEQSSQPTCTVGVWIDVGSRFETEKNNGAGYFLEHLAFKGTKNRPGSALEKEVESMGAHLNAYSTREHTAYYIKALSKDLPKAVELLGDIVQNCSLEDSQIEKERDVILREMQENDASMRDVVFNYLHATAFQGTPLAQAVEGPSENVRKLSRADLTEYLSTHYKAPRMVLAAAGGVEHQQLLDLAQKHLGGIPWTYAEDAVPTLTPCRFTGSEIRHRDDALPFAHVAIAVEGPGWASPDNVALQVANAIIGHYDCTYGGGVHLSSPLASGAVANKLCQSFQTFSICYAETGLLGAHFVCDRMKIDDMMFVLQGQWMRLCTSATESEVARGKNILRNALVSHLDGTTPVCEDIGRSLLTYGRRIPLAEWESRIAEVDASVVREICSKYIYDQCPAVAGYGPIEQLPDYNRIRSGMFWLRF
# UniProt P30740: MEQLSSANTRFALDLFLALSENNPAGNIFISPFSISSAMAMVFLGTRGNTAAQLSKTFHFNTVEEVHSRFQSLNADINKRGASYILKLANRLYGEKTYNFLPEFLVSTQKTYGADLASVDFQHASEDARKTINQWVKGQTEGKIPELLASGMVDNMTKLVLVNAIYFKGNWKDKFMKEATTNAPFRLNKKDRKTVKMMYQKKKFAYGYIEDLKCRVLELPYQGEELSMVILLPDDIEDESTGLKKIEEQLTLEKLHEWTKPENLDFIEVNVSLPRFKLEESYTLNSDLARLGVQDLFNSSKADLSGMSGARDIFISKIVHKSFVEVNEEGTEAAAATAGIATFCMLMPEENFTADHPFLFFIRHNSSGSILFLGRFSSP
# UniProt P43897: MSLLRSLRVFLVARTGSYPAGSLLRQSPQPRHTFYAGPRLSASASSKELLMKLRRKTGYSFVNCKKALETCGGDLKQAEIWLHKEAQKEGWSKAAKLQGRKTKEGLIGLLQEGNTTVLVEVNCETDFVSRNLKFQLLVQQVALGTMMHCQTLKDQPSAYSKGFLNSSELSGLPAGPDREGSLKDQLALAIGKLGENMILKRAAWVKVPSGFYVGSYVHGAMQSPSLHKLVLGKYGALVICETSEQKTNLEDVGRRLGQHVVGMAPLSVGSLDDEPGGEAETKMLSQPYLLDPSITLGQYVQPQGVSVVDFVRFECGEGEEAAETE
# UniProt P38405, whole entry: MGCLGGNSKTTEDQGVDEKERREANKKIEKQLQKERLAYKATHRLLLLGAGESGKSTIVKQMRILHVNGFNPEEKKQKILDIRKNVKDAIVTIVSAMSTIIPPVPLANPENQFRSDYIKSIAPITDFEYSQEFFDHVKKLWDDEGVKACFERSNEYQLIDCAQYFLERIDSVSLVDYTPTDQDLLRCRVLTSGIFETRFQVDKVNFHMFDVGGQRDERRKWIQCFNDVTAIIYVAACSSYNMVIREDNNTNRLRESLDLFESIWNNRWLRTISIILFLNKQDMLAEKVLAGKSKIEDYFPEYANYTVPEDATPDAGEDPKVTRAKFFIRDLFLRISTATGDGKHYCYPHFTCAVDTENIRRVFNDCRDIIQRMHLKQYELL
# UniProt P33552, whole entry: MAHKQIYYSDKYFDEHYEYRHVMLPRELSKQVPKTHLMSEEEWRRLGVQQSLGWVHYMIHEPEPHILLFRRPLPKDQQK
# UniProt P42331: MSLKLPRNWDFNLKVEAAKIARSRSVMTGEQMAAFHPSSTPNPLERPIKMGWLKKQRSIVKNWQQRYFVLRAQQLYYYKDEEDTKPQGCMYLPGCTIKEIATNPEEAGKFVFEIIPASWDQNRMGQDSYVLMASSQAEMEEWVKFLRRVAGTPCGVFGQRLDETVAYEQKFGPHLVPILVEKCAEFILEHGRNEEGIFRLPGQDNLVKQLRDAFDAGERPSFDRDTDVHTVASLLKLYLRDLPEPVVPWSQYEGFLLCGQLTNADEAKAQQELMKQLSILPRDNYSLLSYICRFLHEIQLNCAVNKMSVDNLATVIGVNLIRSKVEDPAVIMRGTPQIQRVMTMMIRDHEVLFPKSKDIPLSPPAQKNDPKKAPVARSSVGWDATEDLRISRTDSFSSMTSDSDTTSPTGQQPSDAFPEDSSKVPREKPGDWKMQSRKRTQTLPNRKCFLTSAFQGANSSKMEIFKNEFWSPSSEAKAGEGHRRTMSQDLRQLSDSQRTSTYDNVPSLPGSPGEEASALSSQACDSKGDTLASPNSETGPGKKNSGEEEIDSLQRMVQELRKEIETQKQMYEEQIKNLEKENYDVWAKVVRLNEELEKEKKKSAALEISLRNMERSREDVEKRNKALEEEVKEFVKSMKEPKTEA
# The list shows a part of the results. Most entries show no effect beyond the scatter of the controls.
# Compound: Cc1nc(Nc2ncc(C(=O)Nc3c(C)cccc3Cl)s2)cc(N2CCN(CCO)CC2)n1 [dasatinib]
# Assay: log2 fold change of tryptic peptide abundance, ligand vs vehicle (limited proteolysis) (log2 ratio); higher = more trypsin-susceptible (destabilized)
# Details: ligand concentration: 5 uM; sample: K562 cleared lysate
row,Target,log2 fold change
1,"RFC4 (peptide sequence: GVAASAGSSGENKK, peptide start residue: 21) (UniProt P35249)",0.111
2,"UQCRC1 (peptide sequence: SGMFWLR, peptide start residue: 473) (UniProt P31930)",0.0652
3,"SERPINB1 (peptide sequence: LVLVNAIYFK, peptide start residue: 159) (UniProt P30740)",0.279
4,"ERP29 (peptide sequence: FDTQYPYGEK, peptide start residue: 60) (UniProt P30040)",-0.756
5,"TSFM (peptide sequence: VPSGFYVGSYVHGAMQSPSLHK, peptide start residue: 207) (UniProt P43897)",0.111
6,"UniProt P38405 (peptide sequence: FQVDKVNFHMFDVGGQR, peptide start residue: 855)",-0.108
7,"CKS2 (peptide sequence: QIYYSDK, peptide start residue: 5) (UniProt P33552)",0.118
8,"ARHGAP25 (peptide sequence: TQTLPNRKCFLTSAFQGANSSK, peptide start residue: 440) (UniProt P42331)",0.141

# 2 entries from above, reformatted:
row	Target	log2 fold change
6	UniProt P38405 (peptide sequence: FQVDKVNFHMFDVGGQR, peptide start residue: 855)	-0.108
7	CKS2 (peptide sequence: QIYYSDK, peptide start residue: 5) (UniProt P33552)	0.118
